{"sequences": {"note": "Sequences of proteins named here, by UniProt entry; tags and fusion partners are left off. A change or cut given only in a name is not applied to a line headed by its entry.", "UniProt P17948": "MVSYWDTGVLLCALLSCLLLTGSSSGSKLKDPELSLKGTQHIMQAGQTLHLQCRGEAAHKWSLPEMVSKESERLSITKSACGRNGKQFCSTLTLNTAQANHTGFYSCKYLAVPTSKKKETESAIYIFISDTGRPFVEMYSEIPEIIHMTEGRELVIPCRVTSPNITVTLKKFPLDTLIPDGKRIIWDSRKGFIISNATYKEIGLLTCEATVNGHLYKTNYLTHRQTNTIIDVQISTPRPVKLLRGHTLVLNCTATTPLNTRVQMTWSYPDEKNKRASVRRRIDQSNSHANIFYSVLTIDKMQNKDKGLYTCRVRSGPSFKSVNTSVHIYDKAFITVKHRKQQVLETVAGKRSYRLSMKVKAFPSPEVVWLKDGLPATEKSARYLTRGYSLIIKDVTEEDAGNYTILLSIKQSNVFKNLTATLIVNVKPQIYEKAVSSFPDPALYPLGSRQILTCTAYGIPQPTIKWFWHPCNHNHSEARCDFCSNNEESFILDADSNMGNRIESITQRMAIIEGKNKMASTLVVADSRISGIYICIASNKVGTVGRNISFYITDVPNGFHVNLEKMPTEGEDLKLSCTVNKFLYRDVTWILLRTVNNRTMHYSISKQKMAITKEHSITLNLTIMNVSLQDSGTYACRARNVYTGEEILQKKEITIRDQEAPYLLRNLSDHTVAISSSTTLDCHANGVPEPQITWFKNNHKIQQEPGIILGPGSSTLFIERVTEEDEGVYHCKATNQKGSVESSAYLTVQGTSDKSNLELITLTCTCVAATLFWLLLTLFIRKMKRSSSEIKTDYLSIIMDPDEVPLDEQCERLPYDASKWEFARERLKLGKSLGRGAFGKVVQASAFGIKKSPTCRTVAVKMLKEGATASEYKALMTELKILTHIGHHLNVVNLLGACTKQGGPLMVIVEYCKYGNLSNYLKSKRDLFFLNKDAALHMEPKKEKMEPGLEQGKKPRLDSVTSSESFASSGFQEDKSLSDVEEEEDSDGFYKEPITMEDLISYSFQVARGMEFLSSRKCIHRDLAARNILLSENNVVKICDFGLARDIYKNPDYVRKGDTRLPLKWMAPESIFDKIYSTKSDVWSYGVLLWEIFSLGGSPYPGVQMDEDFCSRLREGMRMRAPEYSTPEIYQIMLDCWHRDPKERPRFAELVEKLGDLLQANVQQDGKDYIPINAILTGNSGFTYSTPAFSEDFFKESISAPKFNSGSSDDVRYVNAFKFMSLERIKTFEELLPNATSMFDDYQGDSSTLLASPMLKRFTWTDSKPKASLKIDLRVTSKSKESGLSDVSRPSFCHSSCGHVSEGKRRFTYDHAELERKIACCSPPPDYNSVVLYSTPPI"}, "source": "patent US20030120038A1", "target": "T1, recombinant human PlGF (human) (UniProt P49763)", "T1 sequence (125I label (chloramine T method) in the tracer form, looked up)": "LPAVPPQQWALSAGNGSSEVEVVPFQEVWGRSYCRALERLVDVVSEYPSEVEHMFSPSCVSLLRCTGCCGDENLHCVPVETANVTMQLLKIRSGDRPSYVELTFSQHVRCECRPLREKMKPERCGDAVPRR", "test": "covalent crosslinking (BS3) with [125I]PlGF, SDS/PAGE; competed by excess unlabeled PlGF", "note": "No constants are given. Whether binding was seen depends on the method and setting. Some binding calls cover weakened binding; strength is not graded here."}
{"substance": "sVEGF-RI, natural soluble form of the FLT VEGF receptor, expressed by baculovirus in Sf9 insect cells (from UniProt P17948 27-656)", "values": [{"measurement": "binding", "result": "binds"}]}
